Here are results for three molecules from publication doi:10.1101/818856.

Where two headings read alike, the source gives them in different places. No constants are given. Whether binding was seen depends on the method and setting. In cells and extracts the contact can be indirect. Binding can be weak; no strength is given. Where a sequence is shown, tags or fusion partners need not be part of it.

Assay in all cases: co-IP
Assay [1] deals with T1, µ1B with internal YFP-tag (human) (UniProt Q9Y6Q5).
T1 sequence: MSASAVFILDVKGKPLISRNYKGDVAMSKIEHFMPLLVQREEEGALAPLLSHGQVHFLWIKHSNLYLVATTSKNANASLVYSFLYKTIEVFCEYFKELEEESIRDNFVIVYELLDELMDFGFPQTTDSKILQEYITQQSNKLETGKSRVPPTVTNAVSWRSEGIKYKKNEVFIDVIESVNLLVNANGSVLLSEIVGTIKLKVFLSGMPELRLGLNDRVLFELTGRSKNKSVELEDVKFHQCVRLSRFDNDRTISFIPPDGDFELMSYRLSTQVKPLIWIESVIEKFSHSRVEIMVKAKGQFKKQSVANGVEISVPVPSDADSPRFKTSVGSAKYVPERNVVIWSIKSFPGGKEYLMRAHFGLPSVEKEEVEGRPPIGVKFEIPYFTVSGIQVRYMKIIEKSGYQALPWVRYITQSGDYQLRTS

Assay [2] deals with T1, µ1B with internal YFP-tag (human). This is another data set of the same source.
Assay [3] has as its target T2, µ1A with internal YFP-tag (mouse) (UniProt P35585).
T2 sequence: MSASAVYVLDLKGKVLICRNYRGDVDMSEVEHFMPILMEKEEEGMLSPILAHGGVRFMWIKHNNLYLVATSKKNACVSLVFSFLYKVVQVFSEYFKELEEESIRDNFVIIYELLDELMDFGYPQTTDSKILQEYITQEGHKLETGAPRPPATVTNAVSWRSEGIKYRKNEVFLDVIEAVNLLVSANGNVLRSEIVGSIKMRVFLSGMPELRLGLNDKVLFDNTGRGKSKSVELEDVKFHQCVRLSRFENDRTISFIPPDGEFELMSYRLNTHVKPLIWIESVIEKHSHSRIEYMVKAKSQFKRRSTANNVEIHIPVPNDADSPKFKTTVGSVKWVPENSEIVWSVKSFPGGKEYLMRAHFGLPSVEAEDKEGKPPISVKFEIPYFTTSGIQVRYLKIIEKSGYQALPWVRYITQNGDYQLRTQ

The target in assay [4] is γ-adaptin (porcine (endogenous in LLC-PK1)).

Regarding “clathrin heavy chain (porcine (endogenous in LLC-PK1))”, in assay [1], the binding entry was “binds”.
Regarding “γ-adaptin (porcine (endogenous in LLC-PK1))”, the binding entry in assay [2], in assay [3] and in assay [1] was “binds” each time.

B1: µ1B with internal YFP-tag (protein, UniProt Q9Y6Q5 1-423)
chain: T1 sequence
Regarding B1, the binding result in assay [4] is reported as “binds”.
